Measured values published in article PMC7372886.
Results are given in words; binding and its absence hold for the method and conditions named. Binding seen in cells or lysates may run through a third protein. Some entries that bind do so weakly or less than the wild type.

The chains behind the UniProt entries cited, without tags or fusion partners.
UniProt P49327: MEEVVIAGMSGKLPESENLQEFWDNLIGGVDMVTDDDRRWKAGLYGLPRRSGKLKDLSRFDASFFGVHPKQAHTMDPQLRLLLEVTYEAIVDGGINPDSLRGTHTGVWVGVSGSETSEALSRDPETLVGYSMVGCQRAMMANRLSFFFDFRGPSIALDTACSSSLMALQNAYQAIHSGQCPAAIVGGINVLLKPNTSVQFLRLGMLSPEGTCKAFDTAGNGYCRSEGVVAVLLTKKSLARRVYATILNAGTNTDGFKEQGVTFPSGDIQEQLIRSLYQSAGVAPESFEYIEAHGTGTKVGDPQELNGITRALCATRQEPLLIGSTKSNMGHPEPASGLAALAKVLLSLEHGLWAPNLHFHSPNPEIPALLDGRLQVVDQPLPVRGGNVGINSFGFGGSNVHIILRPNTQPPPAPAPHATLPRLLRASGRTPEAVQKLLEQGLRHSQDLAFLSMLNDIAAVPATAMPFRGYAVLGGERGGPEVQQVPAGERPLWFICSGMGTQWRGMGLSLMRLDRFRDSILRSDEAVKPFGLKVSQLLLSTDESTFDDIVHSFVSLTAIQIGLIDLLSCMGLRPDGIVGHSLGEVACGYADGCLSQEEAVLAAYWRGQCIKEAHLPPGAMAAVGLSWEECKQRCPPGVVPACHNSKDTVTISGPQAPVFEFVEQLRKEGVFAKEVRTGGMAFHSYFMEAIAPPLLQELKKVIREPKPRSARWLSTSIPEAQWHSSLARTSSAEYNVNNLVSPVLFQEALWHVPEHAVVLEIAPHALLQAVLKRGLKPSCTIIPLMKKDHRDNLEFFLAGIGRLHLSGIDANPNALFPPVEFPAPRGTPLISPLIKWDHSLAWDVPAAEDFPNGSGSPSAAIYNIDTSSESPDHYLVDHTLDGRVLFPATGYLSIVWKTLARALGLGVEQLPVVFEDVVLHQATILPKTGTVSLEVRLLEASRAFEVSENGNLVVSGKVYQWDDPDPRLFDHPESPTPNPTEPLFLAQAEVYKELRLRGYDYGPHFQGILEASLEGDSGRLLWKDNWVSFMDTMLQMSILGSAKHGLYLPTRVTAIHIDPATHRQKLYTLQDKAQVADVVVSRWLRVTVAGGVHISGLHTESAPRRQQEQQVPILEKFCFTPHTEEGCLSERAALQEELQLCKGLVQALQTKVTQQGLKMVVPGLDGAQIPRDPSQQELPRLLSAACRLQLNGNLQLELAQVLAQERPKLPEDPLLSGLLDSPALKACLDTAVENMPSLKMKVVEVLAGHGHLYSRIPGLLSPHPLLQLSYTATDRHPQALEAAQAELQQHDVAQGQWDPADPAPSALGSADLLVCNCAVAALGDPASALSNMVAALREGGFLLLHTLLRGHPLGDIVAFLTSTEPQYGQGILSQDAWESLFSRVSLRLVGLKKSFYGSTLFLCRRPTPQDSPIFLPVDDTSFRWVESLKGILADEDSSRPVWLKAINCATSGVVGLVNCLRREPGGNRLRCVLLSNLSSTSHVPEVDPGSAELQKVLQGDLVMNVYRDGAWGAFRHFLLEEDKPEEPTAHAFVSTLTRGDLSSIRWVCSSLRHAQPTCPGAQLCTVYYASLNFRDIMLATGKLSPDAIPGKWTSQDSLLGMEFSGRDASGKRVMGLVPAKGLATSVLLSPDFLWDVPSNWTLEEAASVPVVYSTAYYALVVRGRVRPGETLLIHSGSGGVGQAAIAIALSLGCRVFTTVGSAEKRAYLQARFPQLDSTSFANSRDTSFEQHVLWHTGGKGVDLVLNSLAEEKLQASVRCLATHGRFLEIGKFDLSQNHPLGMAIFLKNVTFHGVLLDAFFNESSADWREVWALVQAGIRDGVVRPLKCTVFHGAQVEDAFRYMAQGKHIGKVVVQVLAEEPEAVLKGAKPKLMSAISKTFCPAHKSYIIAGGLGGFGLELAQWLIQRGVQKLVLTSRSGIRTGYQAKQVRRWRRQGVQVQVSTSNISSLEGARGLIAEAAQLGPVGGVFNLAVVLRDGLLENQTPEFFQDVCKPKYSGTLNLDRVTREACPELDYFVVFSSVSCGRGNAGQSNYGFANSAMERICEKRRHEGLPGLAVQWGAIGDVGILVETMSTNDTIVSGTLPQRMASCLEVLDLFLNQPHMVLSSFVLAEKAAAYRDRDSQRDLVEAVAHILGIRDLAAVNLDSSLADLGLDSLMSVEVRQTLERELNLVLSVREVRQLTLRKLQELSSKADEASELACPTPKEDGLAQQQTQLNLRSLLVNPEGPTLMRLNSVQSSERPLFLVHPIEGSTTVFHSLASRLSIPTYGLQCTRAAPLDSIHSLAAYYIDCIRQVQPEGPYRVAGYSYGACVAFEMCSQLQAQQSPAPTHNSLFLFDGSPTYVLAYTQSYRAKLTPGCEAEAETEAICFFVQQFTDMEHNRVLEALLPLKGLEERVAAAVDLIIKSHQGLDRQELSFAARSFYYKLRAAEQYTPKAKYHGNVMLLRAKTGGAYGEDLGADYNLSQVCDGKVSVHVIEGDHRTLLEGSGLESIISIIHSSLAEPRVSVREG

Target: Fatty acid synthase (human (endogenous in HepG2 and SMMC7721)) (UniProt P49327)
Test: co-IP; 1 mg whole cell lysate of HepG2 or SMMC7721 cells with 2 µg FASN antibody overnight at 4 °C, Protein A/G agarose beads; western blot; normal rabbit IgG and beads as negative controls

B1: Signal-induced proliferation-associated protein 1 (protein, UniProt Q96FS4 1-1042)
chain: MPMWAGGVGSPRRGMAPASTDDLFARKLRQPARPPLTPHTFEPRPVRGPLLRSGSDAGEARPPTPASPRARAHSHEEASRPAATSTRLFTDPLALLGLPAEEPEPAFPPVLEPRWFAHYDVQSLLFDWAPRSQGMGSHSEASSGTLASAEDQAASSDLLHGAPGFVCELGGEGELGLGGPASPPVPPALPNAAVSILEEPQNRTSAYSLEHADLGAGYYRKYFYGKEHQNFFGMDESLGPVAVSLRREEKEGSGGGTLHSYRVIVRTTQLRTLRGTISEDALPPGPPRGLSPRKLLEHVAPQLSPSCLRLGSASPKVPRTLLTLDEQVLSFQRKVGILYCRAGQGSEEEMYNNQEAGPAFMQFLTLLGDVVRLKGFESYRAQLDTKTDSTGTHSLYTTYQDHEIMFHVSTMLPYTPNNQQQLLRKRHIGNDIVTIVFQEPGSKPFCPTTIRSHFQHVFLVVRAHTPCTPHTTYRVAVSRTQDTPAFGPALPAGGGPFAANADFRAFLLAKALNGEQAAGHARQFHAMATRTRQQYLQDLATNEVTTTSLDSASRFGLPSLGGRRRAAPRGPGAELQAAGSLVWGVRAAPGARVAAGAQASGPEGIEVPCLLGISAEALVLVAPRDGRVVFNCACRDVLAWTFSEQQLDLYHGRGEAITLRFDGSPGQAVGEVVARLQLVSRGCETRELALPRDGQGRLGFEVDAEGFVTHVERFTFAETAGLRPGARLLRVCGQTLPSLRPEAAAQLLRSAPKVCVTVLPPDESGRPRRSFSELYTLSLQEPSRRGAPDPVQDEVQGVTLLPTTKQLLHLCLQDGGSPPGPGDLAEERTEFLHSQNSLSPRSSLSDEAPVLPNTTPDLLLATTAKPSVPSADSETPLTQDRPGSPSGSEDKGNPAPELRASFLPRTLSLRNSISRIMSEAGSGTLEDEWQAISEIASTCNTILESLSREGQPIPESGDPKGTPKSDAEPEPGNLSEKVSHLESMLRKLQEDLQKEKADRAALEEEVRSLRHNNRRLQAESESAATRLLLASKQLGSPTADLA
Question: With B1 as the binder, how does the binding read?
Answer: binds

B2: CD59 glycoprotein (protein, UniProt P13987 26-102)
chain: LQCYNCPNPTADCKTAVNCSSDFDACLITKAGLQVYNKCWKFEHCNFNDVTTRLRENELTYYCCKKDLCNFNEQLEN
Question: For B2, which binding is on record?
Answer: binds
